{
  "source": "paper PMC6448818",
  "about": "“A novel evolutionary conserved mechanism of RNA stability regulates synexpression of primordial germ cell-specific genes prior to the sex-determination stage in medaka”",
  "key": {"[1]": {"target": "T1, Ol-bsf (Ol-lrpprc, Bicoid Stability Factor) (Oryzias latipes) (UniProt H2LIH1)", "T1 sequence (looked up, limits assumed)": "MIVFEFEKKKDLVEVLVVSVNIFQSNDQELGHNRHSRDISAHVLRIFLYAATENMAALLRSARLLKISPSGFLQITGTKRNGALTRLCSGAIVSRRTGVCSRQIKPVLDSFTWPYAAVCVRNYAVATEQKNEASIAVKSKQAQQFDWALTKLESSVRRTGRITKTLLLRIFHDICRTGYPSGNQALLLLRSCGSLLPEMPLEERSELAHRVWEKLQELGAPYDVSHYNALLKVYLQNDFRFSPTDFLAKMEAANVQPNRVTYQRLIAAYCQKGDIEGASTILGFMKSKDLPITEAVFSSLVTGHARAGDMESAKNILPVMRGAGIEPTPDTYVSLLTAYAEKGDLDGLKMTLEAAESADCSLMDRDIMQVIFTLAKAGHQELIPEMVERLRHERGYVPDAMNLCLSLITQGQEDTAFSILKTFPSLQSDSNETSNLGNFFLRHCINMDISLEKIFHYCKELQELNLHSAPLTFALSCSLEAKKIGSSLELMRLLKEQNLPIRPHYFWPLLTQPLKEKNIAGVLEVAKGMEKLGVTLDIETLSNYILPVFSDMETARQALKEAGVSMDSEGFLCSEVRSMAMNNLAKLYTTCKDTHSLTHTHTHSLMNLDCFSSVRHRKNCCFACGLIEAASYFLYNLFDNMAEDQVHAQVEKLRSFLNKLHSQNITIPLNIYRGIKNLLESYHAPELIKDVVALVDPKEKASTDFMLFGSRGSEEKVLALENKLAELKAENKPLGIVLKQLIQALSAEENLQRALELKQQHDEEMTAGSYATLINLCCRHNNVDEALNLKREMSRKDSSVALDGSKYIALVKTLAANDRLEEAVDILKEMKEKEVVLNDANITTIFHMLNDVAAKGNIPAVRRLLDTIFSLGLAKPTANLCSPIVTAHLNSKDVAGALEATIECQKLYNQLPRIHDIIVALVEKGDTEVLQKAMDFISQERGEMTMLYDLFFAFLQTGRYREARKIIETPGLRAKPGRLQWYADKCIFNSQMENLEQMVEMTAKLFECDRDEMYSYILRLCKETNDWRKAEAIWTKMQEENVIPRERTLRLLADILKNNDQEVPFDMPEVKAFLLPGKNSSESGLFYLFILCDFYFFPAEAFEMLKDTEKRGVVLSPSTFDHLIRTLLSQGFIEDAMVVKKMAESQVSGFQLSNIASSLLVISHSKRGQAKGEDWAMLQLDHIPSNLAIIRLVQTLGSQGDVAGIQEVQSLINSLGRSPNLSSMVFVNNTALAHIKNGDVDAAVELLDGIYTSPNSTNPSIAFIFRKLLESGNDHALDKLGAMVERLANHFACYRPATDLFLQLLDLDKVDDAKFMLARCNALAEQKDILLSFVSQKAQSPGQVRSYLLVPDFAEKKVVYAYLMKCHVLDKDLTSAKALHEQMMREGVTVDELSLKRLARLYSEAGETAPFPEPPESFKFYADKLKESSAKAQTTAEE", "assay": "EMSA", "conditions": "labelled fly probe; EMSA: 10 mM Tris-HCl pH 7.9, 100 mM KCl, 10% glycerol, 5 mM MgCl2, 1 ug torula rRNA, 0.075% Triton X-100, 1 mM DTT, 1 ug BSA, 0.5 ng probe, 2 or 4 uL IVT mix in 20 uL; protein translated in vitro; protein details: FLAG; label: 5'-32P when probe, unlabelled when competitor"}, "[2]": {"system": "Ol-cug-bp1 (Oryzias latipes)", "assay": "competition with a labelled probe", "conditions": "vs labelled D3U-box, EMSA: 10 mM Tris-HCl pH 7.9, 100 mM KCl, 10% glycerol, 5 mM MgCl2, 1 ug torula rRNA, 0.075% Triton X-100, 1 mM DTT, 1 ug BSA, 0.5 ng probe, 2 or 4 uL IVT mix in 20 uL, protein translated in vitro, protein details: FLAG, label: unlabelled competitor"}, "[3]": {"system": "Ol-cug-bp1 (Oryzias latipes)", "assay": "EMSA", "conditions": "self-competition 1/1 to 1/5 gave progressive loss of shift; EMSA: 10 mM Tris-HCl pH 7.9, 100 mM KCl, 10% glycerol, 5 mM MgCl2, 1 ug torula rRNA, 0.075% Triton X-100, 1 mM DTT, 1 ug BSA, 0.5 ng probe, 2 or 4 uL IVT mix in 20 uL; protein translated in vitro; protein details: FLAG; label: 5'-32P when probe, unlabelled when competitor"}, "[4]": {"system": "Ol-cug-bp2 (Oryzias latipes)", "assay": "EMSA", "conditions": "no convincing evidence for specific binding; EMSA: 10 mM Tris-HCl pH 7.9, 100 mM KCl, 10% glycerol, 5 mM MgCl2, 1 ug torula rRNA, 0.075% Triton X-100, 1 mM DTT, 1 ug BSA, 0.5 ng probe, 2 or 4 uL IVT mix in 20 uL; protein translated in vitro; label: 5'-32P when probe, unlabelled when competitor"}},
  "note": "For at least one entry, the source does not settle the construct or the ends of the probe. For some assays here: A negative result means that nothing was seen under these conditions. For some assays here: Protein sequences can lack the tags named with them.",
  "data": [
    {"sequence": "UGGUUCACGUCUGCUGCAGCUCUCUGACUCU", "values": [
      {"measurement": "binding result", "setting": "[1]", "value": "binds"}
    ]},
    {"sequence": "UGGUUCACGUUCUUCAAGACGCUCUGACUCU [D3U-scrambled box (S-D3U-box)]", "values": [
      {"measurement": "binding result", "setting": "[2]; 1/1 to 1/10", "value": "no binding"}
    ]},
    {"sequence": "UGGUUCACGUUCUUCACAGGUCUCUGACUCU [D3U-minus CUG box (CUGminus-D3U-box)]", "values": [
      {"measurement": "binding result", "setting": "[2]; 1/1 to 1/5", "value": "no binding"}
    ]},
    {"sequence": "UGGUUCACGUCUGCUGCAGGUCUCUGACUCU [native medaka D3U-box]", "values": [
      {"measurement": "binding result", "setting": "[3]", "value": "binds"},
      {"measurement": "binding result", "setting": "[4]", "value": "no binding"}
    ]}
  ]
}
